Experimental data reported in patent US20160017004A1.
No constants are given. Whether binding was seen depends on the method and setting. Some results given as binding are weak or reduced against the parent protein; the word gives no strength.

Target: recombinant knob (without ELP) (adenovirus serotype 5) (UniProt P11818)
Test: non-denaturing PAGE at 4 C (self-association)

B1: recombinant knob (without ELP) (protein)
chain: GAITVGNKNNDKLTLWTTPAPSPNCRLNAEKDAKLTLVLTKCGSQILATVSVLAVKGSLAPISGTVQSAHLIIRFDENGVLLNNSFLDPEYWNFRNGDLTEGTAYTNAVGFMPNLSAYPKSHGKTAKSNIVSQVYLNGDKTKPVTLTITLNGTQETGDTTPSAYSMSFSWDWSGHNYINEIFATSSYTFSYIAQE
binding: binds
